# Reference: the supplement of paper PMC8728848
# Some of the results follow.
# B1: FGF1 (Homo sapiens), P05230 (protein)
# chain: MAEGEITTFTALTEKFNLPPGNYKKPKLLYSNGGHFLRILPDGTVDGTRDRSDQHIQLQLSAESVGEVYIKSTETGQYLAMTDGLLYGSQTPNEECLFLERLEENHYNTYISKHAEKNWFVGLKKNGSCKRGPRTHYGQAILFLPLPASSED
# Legend:
# Assay in all cases: glycan array binding signal (z-score within array); higher = stronger binding
# Details in all cases: glycan notation: IUPAC condensed, linker removed
# Gal(a1-3)Gal = target: Gal(a1-3)Gal
# Procedure, shortened: (§1)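 Glycan array data came from 3228 arrays in the Consortium for Functional Glycomics database, and only arrays with an available protein sequence were kept. Glycan names were put into IUPAC-condensed notation, and columns mapping to the same glycan were averaged. The binding signal is a within-array Z-score, averaged across arrays of one protein sequence run at different concentrations or buffers and across linkers. A negative Z-score can be read as non-binding.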
# Gal(a1-3)Gal(b1-3)GlcNAc = target: Gal(a1-3)Gal(b1-3)GlcNAc
# Procedure, shortened: as §1
# [1] = target: Gal(a1-3)Gal(b1-3)GlcNAc(b1-2)Man
# Procedure, shortened: as §1
# [2] = target: Gal(a1-3)Gal(b1-3)GlcNAc(b1-2)Man(a1-3)[Gal(a1-3)Gal(b1-3)GlcNAc(b1-2)Man(a1-6)]Man(b1-4)GlcNAc(b1-4)GlcNAc
# Procedure, shortened: as §1
# [3] = target: Gal(a1-3)Gal(b1-3)GlcNAc(b1-3)GalNAc
# Procedure, shortened: as §1
# [4] = target: Gal(a1-3)Gal(b1-3)GlcNAc(b1-6)GalNAc
# Procedure, shortened: as §1
# [5] = target: Gal(a1-3)Gal(b1-3)[Fuc(a1-4)]GlcNAc(b1-2)Man(a1-3)[Gal(a1-3)Gal(b1-3)[Fuc(a1-4)]GlcNAc(b1-2)Man(a1-6)]Man(b1-4)GlcNAc(b1-4)GlcNAc
# Procedure, shortened: as §1
# Gal(a1-3)Gal(b1-4)Glc = target: Gal(a1-3)Gal(b1-4)Glc
# Procedure, shortened: as §1
# Gal(a1-3)Gal(b1-4)GlcNAc = target: Gal(a1-3)Gal(b1-4)GlcNAc
# Procedure, shortened: as §1
# [6] = target: Gal(a1-3)Gal(b1-4)GlcNAc(b1-2)Man
# Procedure, shortened: as §1
# [7] = target: Gal(a1-3)Gal(b1-4)GlcNAc(b1-2)Man(a1-3)[Gal(a1-3)Gal(b1-4)GlcNAc(b1-2)Man(a1-6)]Man(b1-4)GlcNAc(b1-4)GlcNAc
# Procedure, shortened: as §1
# [8] = target: Gal(a1-3)Gal(b1-4)GlcNAc(b1-3)GalNAc
# Procedure, shortened: as §1
# [9] = target: Gal(a1-3)Gal(b1-4)GlcNAc(b1-6)GalNAc
# Procedure, shortened: as §1
# [10] = target: Gal(a1-3)Gal(b1-4)[Fuc(a1-3)]GlcNAc
# Procedure, shortened: as §1
# [11] = target: Gal(a1-3)Gal(b1-4)[Fuc(a1-3)]GlcNAc(b1-2)Man(a1-3)[Gal(a1-3)Gal(b1-4)[Fuc(a1-3)]GlcNAc(b1-2)Man(a1-6)]Man(b1-4)GlcNAc(b1-4)GlcNAc
# Procedure, shortened: as §1
# Gal(a1-3)GalNAc = target: Gal(a1-3)GalNAc
# Procedure, shortened: as §1
# [12] = target: Gal(a1-3)[Gal(a1-4)]Gal(b1-4)GlcNAc
# Procedure, shortened: as §1
# [13] = target: Gal(a1-4)Gal(b1-3)GlcNAc(b1-2)Man(a1-3)[Gal(a1-4)Gal(b1-3)GlcNAc(b1-2)Man(a1-6)]Man(b1-4)GlcNAc(b1-4)GlcNAc
# Procedure, shortened: as §1
# Gal(a1-4)Gal(b1-4)Glc = target: Gal(a1-4)Gal(b1-4)Glc
# Procedure, shortened: as §1
# Gal(a1-4)Gal(b1-4)GlcNAc = target: Gal(a1-4)Gal(b1-4)GlcNAc
# Procedure, shortened: as §1
# [14] = target: Gal(a1-4)Gal(b1-4)GlcNAc(b1-2)Man(a1-3)[Gal(a1-4)Gal(b1-4)GlcNAc(b1-2)Man(a1-6)]Man(b1-4)GlcNAc(b1-4)GlcNAc
# Procedure, shortened: as §1
# [15] = target: Gal(a1-4)Gal(b1-4)GlcNAc(b1-3)Gal(b1-4)Glc
# Procedure, shortened: as §1
# Gal(a1-4)GlcNAc = target: Gal(a1-4)GlcNAc
# Procedure, shortened: as §1
# Gal(a1-6)Glc = target: Gal(a1-6)Glc
# Procedure, shortened: as §1
# Gal(b1-2)Gal = target: Gal(b1-2)Gal
# Procedure, shortened: as §1
# Gal(b1-3)Gal = target: Gal(b1-3)Gal
# Procedure, shortened: as §1
# Gal(b1-3)Gal(b1-4)GlcNAc = target: Gal(b1-3)Gal(b1-4)GlcNAc
# Procedure, shortened: as §1
# Gal(b1-3)GalNAc = target: Gal(b1-3)GalNAc
# Procedure, shortened: as §1
# [16] = target: Gal(b1-3)GalNAc(a1-3)[Fuc(a1-2)]Gal(b1-4)Glc
# Procedure, shortened: as §1
# [17] = target: Gal(b1-3)GalNAc(a1-3)[Fuc(a1-2)]Gal(b1-4)GlcNAc
# Procedure, shortened: as §1
# Gal(b1-3)GalNAc(b1-3)Gal = target: Gal(b1-3)GalNAc(b1-3)Gal
# Procedure, shortened: as §1
# [18] = target: Gal(b1-3)GalNAc(b1-3)Gal(a1-4)Gal(b1-4)Glc
# Procedure, shortened: as §1
# [19] = target: Gal(b1-3)GalNAc(b1-4)Gal(b1-4)Glc
# Procedure, shortened: as §1
# [20] = target: Gal(b1-3)GalNAc(b1-4)[Neu5Ac(a2-3)]Gal(b1-4)Glc
# Procedure, shortened: as §1
# Gal(b1-3)GlcNAc = target: Gal(b1-3)GlcNAc
# Procedure, shortened: as §1
# [21] = target: Gal(b1-3)GlcNAc(a1-3)Gal(b1-4)GlcNAc
# Procedure, shortened: as §1
# [22] = target: Gal(b1-3)GlcNAc(a1-6)Gal(b1-4)GlcNAc
# Procedure, shortened: as §1
# Gal(b1-3)GlcNAc(b1-2)Man = target: Gal(b1-3)GlcNAc(b1-2)Man
# Procedure, shortened: as §1
binder,measurement,setting,value
B1,glycan array binding signal (z-score),Gal(a1-3)Gal,-0.679
same,glycan array binding signal (z-score),Gal(a1-3)Gal(b1-3)GlcNAc,-0.763
same,glycan array binding signal (z-score),[1],-0.484
same,glycan array binding signal (z-score),[2],0.78
same,glycan array binding signal (z-score),[3],0.646
same,glycan array binding signal (z-score),[4],-0.792
same,glycan array binding signal (z-score),[5],3.56
same,glycan array binding signal (z-score),Gal(a1-3)Gal(b1-4)Glc,-0.478
same,glycan array binding signal (z-score),Gal(a1-3)Gal(b1-4)GlcNAc,-0.714
same,glycan array binding signal (z-score),[6],-0.052
same,glycan array binding signal (z-score),[7],-0.165
same,glycan array binding signal (z-score),[8],-0.582
same,glycan array binding signal (z-score),[9],-0.776
same,glycan array binding signal (z-score),[10],-0.881
same,glycan array binding signal (z-score),[11],2.57
same,glycan array binding signal (z-score),Gal(a1-3)GalNAc,-0.372
same,glycan array binding signal (z-score),[12],-0.486
same,glycan array binding signal (z-score),[13],0.031
same,glycan array binding signal (z-score),Gal(a1-4)Gal(b1-4)Glc,0.448
same,glycan array binding signal (z-score),Gal(a1-4)Gal(b1-4)GlcNAc,0.333
same,glycan array binding signal (z-score),[14],-0.133
same,glycan array binding signal (z-score),[15],0.423
same,glycan array binding signal (z-score),Gal(a1-4)GlcNAc,0.903
same,glycan array binding signal (z-score),Gal(a1-6)Glc,-0.239
same,glycan array binding signal (z-score),Gal(b1-2)Gal,1.07
same,glycan array binding signal (z-score),Gal(b1-3)Gal,0.557
same,glycan array binding signal (z-score),Gal(b1-3)Gal(b1-4)GlcNAc,0.093
same,glycan array binding signal (z-score),Gal(b1-3)GalNAc,0.296
same,glycan array binding signal (z-score),[16],-0.327
same,glycan array binding signal (z-score),[17],-0.291
same,glycan array binding signal (z-score),Gal(b1-3)GalNAc(b1-3)Gal,-0.753
same,glycan array binding signal (z-score),[18],0.672
same,glycan array binding signal (z-score),[19],1.53
same,glycan array binding signal (z-score),[20],-0.686
same,glycan array binding signal (z-score),Gal(b1-3)GlcNAc,-0.163
same,glycan array binding signal (z-score),[21],-0.713
same,glycan array binding signal (z-score),[22],-0.933
same,glycan array binding signal (z-score),Gal(b1-3)GlcNAc(b1-2)Man,1.29

# In another format: results already given
binder	measurement	setting	value
B1	glycan array binding signal (z-score)	[5]	3.56
same	glycan array binding signal (z-score)	Gal(a1-3)Gal(b1-4)Glc	-0.478
